Experimental data published in article PMC11637378, “Optogenetic screening of MCT1 activity implicates a cluster of non-steroidal anti-inflammatory drugs (NSAIDs) as inhibitors of lactate transport” (PLOS ONE, 2024).

Test system: parent strain (SAWy518)
Experiment: microbe, parasite or virus in culture
Design: species or system Saccharomyces cerevisiae SAWy518; Off-target growth counter-screen, OD600 as per cent of untreated wells, strain lacking MCT1
Conditions: 18.5 h; sheet Primary Screen - final;; off-target growth of parent strain, about 18 h
Procedure: Cells were grown for 18 hours prior to OD measurement. Fill represents manual compound grouping based on compound class or target. OD600 is reported in Tecan units. […] The drug library used in this study for the initial screen and rescreen was provided by the Small Molecule Screening Center at Princeton University, through a collaboration with Dr. Hahn Kim. […] Follow-up analysis (IC50 determinations) on library compounds was performed using compounds purchased from outside sources. […] Stocks were then diluted 100-fold into media containing 0.01 OD600 inoculation of yeast, to achieve the final concentrations listed. Where compounds were added manually (for example 10 μM AZD3965 addition) stock concentrations were diluted by a factor of 100-fold regardless of scale, resulting in a final concentration of 1% v/v DMSO which is well tolerated by yeast.

CC(C)c1c(C(=O)Nc2ccccc2)c(-c2ccccc2)c(-c2ccc(F)cc2)n1CC[C@@H](O)C[C@@H](O)CC(=O)O [Atorvastatin] was tested, and the viability at 10 µM was 90.5%.
